Data from paper PMC4807768.
Results are given in words; binding and its absence hold for the method and conditions named. Binding can be weak; no strength is given. For some assays here: Sequences can lack the tags named with a protein. For some assays here: In cells and extracts the contact can be indirect.

Protein sequences, listed by entry. Tags and fused reporters are not part of them. Lines headed by an entry give the natural chain unless they say otherwise; changes in a name come on top.
UniProt Q9LRM4: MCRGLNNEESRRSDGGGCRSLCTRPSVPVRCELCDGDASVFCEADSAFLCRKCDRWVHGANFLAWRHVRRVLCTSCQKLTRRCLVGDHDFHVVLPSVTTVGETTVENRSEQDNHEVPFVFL
UniProt Q1G3I2: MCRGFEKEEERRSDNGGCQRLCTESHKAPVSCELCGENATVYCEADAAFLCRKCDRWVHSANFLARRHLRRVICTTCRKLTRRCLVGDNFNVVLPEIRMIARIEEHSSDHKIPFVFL
UniProt Q39057: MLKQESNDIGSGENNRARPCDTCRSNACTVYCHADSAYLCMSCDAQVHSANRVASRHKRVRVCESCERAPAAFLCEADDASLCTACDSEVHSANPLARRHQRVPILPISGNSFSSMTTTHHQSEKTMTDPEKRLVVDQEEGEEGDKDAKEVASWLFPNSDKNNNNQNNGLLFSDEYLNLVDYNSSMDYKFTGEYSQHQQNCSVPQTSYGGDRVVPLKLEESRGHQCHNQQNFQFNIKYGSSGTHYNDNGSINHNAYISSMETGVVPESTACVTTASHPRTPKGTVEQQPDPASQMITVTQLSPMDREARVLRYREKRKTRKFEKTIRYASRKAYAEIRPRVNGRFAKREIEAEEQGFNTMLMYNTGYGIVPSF

Experiments:
[1] = target: microProtein 1a fused to the Gal4 DNA-binding domain (BD-miP1a) (Arabidopsis thaliana) (UniProt Q9LRM4); experiment: two-hybrid; Matchmaker Gold (Clontech), Y2H Gold strain; Gal4 AD fusions of CO or COBB as prey, Gal4 BD fusions of miP1a, miP1b, miP1a* as bait; growth on SD lacking His, Leu, Trp with 10 mM 3-aminotriazole
[2] = target: microProtein 1b fused to the Gal4 DNA-binding domain (BD-miP1b) (Arabidopsis thaliana) (UniProt Q1G3I2); experiment: as above
[3] = target: MBP-CO (Arabidopsis thaliana) (UniProt Q39057); experiment: pull-down; soluble protein fractions of E. coli BL21 lysates mixed; MBP-CO held on amylose-coated magnetic beads; GST fusions detected by immunoblotting
[4] = target: GST-miP1a (Arabidopsis thaliana) (UniProt Q9LRM4); experiment: pull-down; E. coli cell extracts of MBP-CO and HIS-TPL mixed with GST-miP1a, GST-miP1aΔPFVFL or GST-ZPR3; GST fusions held on anti-GST magnetic beads; HIS-TPL and MBP-CO detected by immunoblotting
[5] = target: GST-miP1aΔPFVFL (Arabidopsis thaliana) (UniProt Q9LRM4); experiment: as above
[6] = target: GFP-CO (Arabidopsis thaliana) (UniProt Q39057); experiment: FRET or BRET; FRET-FLIM: GFP lifetime in nuclei of transiently transformed Nicotiana benthamiana leaves; GFP-CO with RFP fusions or free RFP
[7] = target: CONSTANS fused to the Gal4 activation domain (AD-CO) (Arabidopsis thaliana) (UniProt Q39057); experiment: yeast three-hybrid; AD-CO and BD-TPL with miP1a expressed from pDRf1-GW; mated strains pJ69-4alpha and YM4271; growth without Trp, Leu, Ura, His with 10 mM 3-aminotriazole
[8] = target: T1, TOPLESS fused to the Gal4 DNA-binding domain (BD-TPL) (Arabidopsis thaliana) (UniProt Q94AI7); experiment: as above
T1 sequence: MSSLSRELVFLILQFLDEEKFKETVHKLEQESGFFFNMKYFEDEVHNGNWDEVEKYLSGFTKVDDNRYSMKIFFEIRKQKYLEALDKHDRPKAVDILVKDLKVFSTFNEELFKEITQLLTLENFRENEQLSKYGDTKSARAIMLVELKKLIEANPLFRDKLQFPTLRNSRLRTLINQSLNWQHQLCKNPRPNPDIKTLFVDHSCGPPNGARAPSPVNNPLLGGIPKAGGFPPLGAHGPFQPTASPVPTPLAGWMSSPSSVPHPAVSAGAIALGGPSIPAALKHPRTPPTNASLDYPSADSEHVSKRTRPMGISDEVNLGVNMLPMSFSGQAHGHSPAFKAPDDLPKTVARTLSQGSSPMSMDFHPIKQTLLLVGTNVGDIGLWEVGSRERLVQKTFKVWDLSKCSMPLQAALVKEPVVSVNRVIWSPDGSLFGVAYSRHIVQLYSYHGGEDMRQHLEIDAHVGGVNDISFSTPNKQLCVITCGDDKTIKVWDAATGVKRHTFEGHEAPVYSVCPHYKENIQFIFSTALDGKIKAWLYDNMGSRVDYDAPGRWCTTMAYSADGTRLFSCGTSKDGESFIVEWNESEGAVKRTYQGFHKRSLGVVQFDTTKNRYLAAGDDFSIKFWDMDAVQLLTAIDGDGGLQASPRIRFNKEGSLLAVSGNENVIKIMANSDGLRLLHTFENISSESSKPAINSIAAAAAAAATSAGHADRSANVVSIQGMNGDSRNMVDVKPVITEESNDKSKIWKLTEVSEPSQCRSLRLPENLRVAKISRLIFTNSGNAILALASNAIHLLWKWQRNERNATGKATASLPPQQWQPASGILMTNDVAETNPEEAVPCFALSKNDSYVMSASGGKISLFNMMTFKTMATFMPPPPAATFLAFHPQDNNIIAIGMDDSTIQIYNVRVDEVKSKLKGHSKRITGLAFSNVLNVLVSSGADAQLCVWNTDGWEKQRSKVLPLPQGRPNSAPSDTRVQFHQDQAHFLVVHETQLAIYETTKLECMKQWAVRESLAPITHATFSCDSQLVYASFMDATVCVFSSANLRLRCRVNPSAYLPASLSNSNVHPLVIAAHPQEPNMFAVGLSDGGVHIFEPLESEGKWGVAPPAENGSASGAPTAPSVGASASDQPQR

[9] = target: T1, TOPLESS fused to the Gal4 DNA-binding domain (BD-TPL) (Arabidopsis thaliana); experiment: two-hybrid; direct yeast two-hybrid test against TPL; growth on medium lacking histidine with 10 mM 3-aminotriazole

“CONSTANS fused to the Gal4 activation domain (AD-CO) (from UniProt Q39057 1-373)” was tested, and the binding [1] was “binds” and the binding [2] was “binds”.

GST-miP1a (from UniProt Q9LRM4) was tested, and the binding [3] was “binds”.

For MBP-CO (from UniProt Q39057 1-373), the binding [4] was “binds” and the binding [5] was “binds”.

With RFP-miP1a (from UniProt Q9LRM4) the binding [6] was “binds”.

RFP-miP1b (from UniProt Q1G3I2) was tested, and the binding [6] was “binds”.

With “miP1a expressed from pDRf1-GW in the yeast three-hybrid assay (from UniProt Q9LRM4)” the binding [7] was “binds” and the binding [8] was “binds”.

In the case of “miP1a*, two-hybrid fusion tested against TPL (Arabidopsis thaliana)”, the binding [9] is reported as “binds”.

“miP1a, two-hybrid fusion tested against TPL (from UniProt Q9LRM4)” was tested, and the binding [9] was “binds”.

In the case of “miP1aΔPFVFL, two-hybrid fusion tested against TPL (from UniProt Q9LRM4) (domain or fragment)”, the binding [9] is reported as “no binding”.

B1: HIS-TPL (protein, UniProt Q94AI7 1-1131)
chain: T1 sequence
B1 was tested, and the binding [4] was “binds” and the binding [5] was “no binding”.
